Reference: US4740501A (priority 1985, dated 1988)
Where “and” joins values, the source holds several entries; their conditions need not be identical. Identical values can stand only once. Some results come without the dose or concentration used.

System: MMTV polypeptides
Format: cell-based, mouse

In the case of `CCOC(=O)[C@H](CCSC)NC(=O)[C@H](Cc1cccc(N(CCCl)CCCl)c1)NC(=O)[C@@H](N)Cc1ccc(F)cc1.Cl` [PTT.119, 3-(p-fluorophenyl)-L-alanyl-3-[m-bis(2-chloroethyl)aminophenyl]-L-alanyl-L-methionine ethyl ester hydrochloride], the “Percentage of Radioactivity Associated with each Polypeptide: p 8” value is reported as 3.8, the “relative levels of the other MMTV polypeptides” value is reported as “not affected” and the “Percentage of Radioactivity Associated with each Polypeptide: gp 37.7/33” value (hydrochloride) is reported as 22.0 and 18.6. The “Percentage of Radioactivity Associated with each Polypeptide: p 17” value (hydrochloride) was 6.9 and 5.4.
